The supplement of paper PMC3682954
Counter-ions that a name gives are not always drawn. ± gives the standard deviation of the averaged measurements. This is one part of the list. Single values are uncertain, as repeats are few or missing.

Tested on: RAW 264.7
Experiment: HMGB1-induced TNF-alpha production relative to HMGB1-stimulated control; higher = more TNF-alpha secretion (less inhibition)
Details: stimulus: HMGB1 5 ug/ml, 18 h
[1] = compound concentration: 1 ug/ml

Structure (SMILES) | HMGB1-induced TNF-alpha production (compound concentration: 3 uM) [%] | HMGB1-induced TNF-alpha production [1] [%]
CC[C@@]1(O)C(=O)OCc2c1cc1n(c2=O)Cc2cc3ccccc3nc2-1 [(S)-(+)-Camptothecin] | 58.3 | –
CC[C@@]1(O)C(=O)OCc2c1cc1n(c2=O)Cc2cc3ccccc3nc2-1 [Camptothecin] | 40.4 | 7.29
C=CCN(C1=NCCN1)c1c(Cl)cccc1Cl [Alinidine] | 78.4 | –
Cc1c(C(=O)c2cccc3ccccc23)c2cccc3c2n1[C@H](CN1CCOCC1)CO3 [( R)-(+)-WIN 55,212-2 mesylate] | 89.1 | –
N=C(N)c1ccc(CS(=O)(=O)F)cc1 [4-Amidinophenylmethanesulfonyl fluoride hydrochloride] | 109 | –
CC(CCc1ccccc1)NC(C)C(O)c1ccc(O)cc1 (configuration not stated) | 56.4 | –
CC(CCc1ccccc1)NC(C)C(O)c1ccc(O)cc1 (configuration not stated) [Nylidrin hydrochloride] | 61.7 | –
CC(CCc1ccccc1)NC(C)C(O)c1ccc(O)cc1 (configuration not stated) [Nylidrin] | 91.2 | –
COc1cccc(C2(O)CCCCC2CN(C)C)c1 (configuration not stated) | 79.1 | –
COc1cccc(C2(O)CCCCC2CN(C)C)c1 (configuration not stated) [Tramadol hydrochloride] | 117 | –
COc1cccc(C2(O)CCCCC2CN(C)C)c1 (configuration not stated) [Tramadol] | 96.6 ± 18 | –
CC(=O)OC1CN2CCC1CC2 (configuration not stated) | 108 | –
CC1C2Cc3ccc(O)cc3C1(C)CCN2CC1CC1 (single isomer, unassigned; (+)) [(+)-Cyclazocine] | 77.9 | –
CN1C[C@H](C(=O)N[C@]2(C)O[C@@]3(O)[C@@H]4CCCN4C(=O)[C@H](Cc4ccccc4)N3C2=O)C[C@@H]2c3cccc4[nH]cc(c34)C[C@H]21 [Dihydroergotamine mesylate] | – | 89.2
CN1C[C@H](C(=O)N[C@]2(C)O[C@@]3(O)[C@@H]4CCCN4C(=O)[C@H](Cc4ccccc4)N3C2=O)C[C@@H]2c3cccc4[nH]cc(c34)C[C@H]21 [Dihydroergotamine methanesulfonate] | 71.1 | –
CN1C[C@H](C(=O)N[C@]2(C)O[C@@]3(O)[C@@H]4CCCN4C(=O)[C@H](Cc4ccccc4)N3C2=O)C[C@@H]2c3cccc4[nH]cc(c34)C[C@H]21 [Dihydroergotamine tartrate] | 62 | –
CN1C[C@H](C(=O)N[C@]2(C)O[C@@]3(O)[C@@H]4CCCN4C(=O)[C@H](Cc4ccccc4)N3C2=O)C[C@@H]2c3cccc4[nH]cc(c34)C[C@H]21 | 86.8 | –
CN1C[C@H](C(=O)N[C@]2(C)O[C@@]3(O)[C@@H]4CCCN4C(=O)[C@H](Cc4ccccc4)N3C2=O)C[C@@H]2c3cccc4[nH]cc(c34)C[C@H]21 [Dihydroergotamine] | 111 | –

Structure (SMILES) | HMGB1-induced TNF-alpha production (compound concentration: 3 uM) [%] | HMGB1-induced TNF-alpha production [1] [%]
O=C1NCN(c2ccccc2)C12CCN(CC1COc3ccccc3O1)CC2 (configuration not stated) [Spiroxatrine] | 107.7 ± 0.61 | –
C[N+]1(C)[C@@H]2CC[C@H]1C[C@@H](OC(=O)C(CO)c1ccccc1)C2 (some centres not stated) [Atropine methyl nitrate] | 97.8 | –
C[N+]1(C)[C@@H]2CC[C@H]1C[C@@H](OC(=O)C(CO)c1ccccc1)C2 (some centres not stated) [Atropine methyl bromide] | 93 | –
C[N+]1(C)[C@@H]2CC[C@H]1C[C@@H](OC(=O)C(CO)c1ccccc1)C2 (some centres not stated) [Methylatropine nitrate] | 112 | –
C[N+]1(C)[C@@H]2CC[C@H]1C[C@@H](OC(=O)C(CO)c1ccccc1)C2 (some centres not stated) | 90.2 | –
c1ccc2nc(N3CCNCC3)ccc2c1 | 76.7 | –
c1ccc2nc(N3CCNCC3)ccc2c1 [Quipazine dimaleate salt] | 121 | –
C[N+](C)(C)CCCCCCCCCC[N+](C)(C)C [Decamethonium bromide] | 86.5 | –
C[N+](C)(C)CCCCCCCCCC[N+](C)(C)C [Decamethonium dibromide] | 81.4 | –
C[N+](C)(C)CCCCCCCCCC[N+](C)(C)C [Decamethonium] | 108 | –
C[N+](C)(C)CCCCCCCCCC[N+](C)(C)C | 90.4 | –
COc1ccc2[nH]c3c(c2c1)CCN=C3C [Methoxy-6-harmalan] | 92.9 | –
NCCc1c[nH]c2c(OCc3ccccc3)cccc12 [7-Benzyloxytryptamine] | – | 66.7
CN1CCC(c2c[nH]c3ccc(O)cc23)CC1 | 86.1 | –
CC(C)[C@@]1(NC(=O)[C@@H]2C[C@@H]3c4cccc5[nH]cc(c45)C[C@H]3N(C)C2)O[C@@]2(O)[C@@H]3CCCN3C(=O)[C@H](Cc3ccccc3)N2C1=O [Dihydroergocristine] | 74.7 | –
O=C1C=C2C=C[C@@H]3C[C@@]2(O1)[C@H]1CCCCN31 [Securinine] | – | 55.3
O=C1C=C2C=C[C@@H]3C[C@@]2(O1)[C@H]1CCCCN31 | 79.7 | –
C/C=C1/CN2CC[C@]34C(=C(C=O)[C@H]1C[C@H]23)Nc1ccccc14 | – | 73.1

Nothing new here: entries from further up.
Structure (SMILES) | HMGB1-induced TNF-alpha production (compound concentration: 3 uM) [%] | HMGB1-induced TNF-alpha production [1] [%]
C[N+]1(C)[C@@H]2CC[C@H]1C[C@@H](OC(=O)C(CO)c1ccccc1)C2 (some centres not stated) [Atropine methyl nitrate] | 97.8 | –
C[N+]1(C)[C@@H]2CC[C@H]1C[C@@H](OC(=O)C(CO)c1ccccc1)C2 (some centres not stated) [Atropine methyl bromide] | 93 | –
C[N+]1(C)[C@@H]2CC[C@H]1C[C@@H](OC(=O)C(CO)c1ccccc1)C2 (some centres not stated) [Methylatropine nitrate] | 112 | –
C[N+]1(C)[C@@H]2CC[C@H]1C[C@@H](OC(=O)C(CO)c1ccccc1)C2 (some centres not stated) | 90.2 | –
c1ccc2nc(N3CCNCC3)ccc2c1 | 76.7 | –
c1ccc2nc(N3CCNCC3)ccc2c1 [Quipazine dimaleate salt] | 121 | –
C[N+](C)(C)CCCCCCCCCC[N+](C)(C)C [Decamethonium bromide] | 86.5 | –
